Patent US11306122B2, “Compositions and methods of inhibiting the binding of plasma IgG autoantibodies to serotonin 2A receptor” (United States Government As Represented By The Department …, priority 2019, dated 2022)
For some assays here: At least one compound was matched to its structure with a doubt left. Some results were stated once for a whole list of compounds, not compound by compound.

Assays:
N2A cells = settings: Zimering 2017; cited from earlier work
[1] = tested on: N2A mouse neuroblastoma cells; assay: N2A cell survival (MTT) promoted by schizophrenia/psychosis plasma autoantibodies; format: cell-based; settings: M100907 500 nM; LY379268 5 μM; pertussis toxin 100 ng/mL; LY294002 20 μM; 24 hours
Protocol: Methods: Plasma from five older adults with chronic schizophrenia and eight age-matched patients having another neuropsychiatric, immune or metabolic disorder was subjected to Protein-A affinity chromatography to obtain IgG autoantibodies. Mean neurite retraction (5 minutes) or cell survival (24 hours) was determined in mouse N2A neuroblastoma cells incubated with autoantibodies in the presence or absence of specific antagonists of the Gq/11/PLC/IP3R signaling pathway, Gi-coupled, beta-arrestin2-directed pathways, or LY379268.
N2A cell survival. MTT assay was performed 24 hours after incubation with test substances (Zimering M B, J Endocrinol Diabetes. 2018; 5(2): 10).
Serotonin 2A receptor activation leads to f3-arrestin-2-mediated desensitization and receptor internalization. However, β-arrestin-2 can also couple with diverse signaling pathways leading to enhanced cell proliferation and/or survival promotion.

COc1cc(CC(C)N)c(OC)cc1I (centres unmarked) [DOI, 1-[2,5-dimethoxy-4-iodophenyl]-2-aminopropane]
time at which agonist-promoted neurite retraction peaked (reversible at longer times) (N2A cells): 3 to 5 min

O=c1cc(N2CCOCC2)oc2c(-c3ccccc3)cccc12 [LY294002]
effect on autoantibody-induced N2A pro-survival/proliferation (words) [1]: significantly decreased
